Measurements: PubChem BioAssay AID1159583 (ICCB-Longwood Screening Facility, Harvard Medical School, 2016)
The other results are listed elsewhere or left out.

test: hypoxia reporter signal reduction in M. tuberculosis – fluorescence, absorbance growth readout, primary screen (AID 1159583); details: M. tuberculosis hypoxia-regulated fluorescent reporter, measured here: M. tuberculosis growth (absorbance), stronger effect = higher value, concentration not given here

Row | Compound | growth inhibition
1 | COc1ccc(C(=O)NCC2(N3CCOCC3)CCCCC2)cc1OC | 13.8%
2 | COc1cc(C(=O)NCC2(N3CCOCC3)CCCCC2)cc(OC)c1C | 74.8%
3 | O=C(NCC1(N2CCOCC2)CCCCC1)c1cc(Br)ccc1Cl | 30.2%
4 | CCc1cc(C(=O)NCC2(N3CCCCC3)CCCCC2)sc1C | -1.34%
5 | O=C(OC1CN2CCC1CC2)C1c2ccccc2C=Cc2ccccc21 (configuration not stated) | 6.23%
6 | CCOC(=O)N1CCC(Nc2ccc(C)cc2)CC1 | -6.33%
7 | N#Cc1ccc(C(=O)NCC2(N3CCCCC3)CCCCC2)cc1 | 1.54%
8 | CC(C)(C)OC(=O)N1CCC(N(C(=O)c2ccccc2)c2ccc(Cl)cc2)CC1 | 9.91%
9 | CN(C)C1(CNC(=O)c2cccc(C#N)c2)CCCCC1 | -2.34%
10 | CCCN1CCC(Nc2cc(OC)cc(OC)c2)CC1 | 3.23%
11 | Fc1ccccc1NC1CCN(Cc2ccccc2)CC1 | -0.132%
12 | Cc1ccc(C(=O)NCC2(N3CCCCC3)CCCCC2)o1 | -0.00727%
13 | Cc1ccc(NC2(C#N)CCN(Cc3ccccc3)CC2)cc1 | 7.97%
14 | CC(=O)N(c1ccccc1)C1CCNCC1 | 0.589%
15 | COc1cc(OC)cc(C(=O)NCC2(N3CCCCC3)CCCCC2)c1 | -3.22%
16 | CN(C)c1ccc(C(=O)NCC2(N3CCCCC3)CCCCC2)cc1 | 5.91%
17 | Cn1c(=O)[nH]cc(N(CCCl)CCCl)c1=O | 7.51%
18 | O=C(NCC1(N2CCCCC2)CCCCC1)c1ccco1 | 11.8%
19 | CCN1CCC(Nc2cccc(F)c2)CC1 | 4.03%
20 | Cc1ccccc1NC1(C#N)CCN(Cc2ccccc2)CC1 | 9.35%
21 | O=C(O)C1(Nc2ccccc2)CCN(Cc2ccccc2)CC1 | 8.63%
22 | CC(C)(C)OC(=O)N1CCC(Nc2ccccc2)CC1 | 8.1%
23 | CCCOc1ccc(C(=O)NCC2(N(C)C)CCCCC2)cc1 | 9.43%

Row | Compound | growth inhibition
24 | CN1CCC(Nc2ccc(F)c(Cl)c2)CC1 | -0.117%
25 | CCOc1ncccc1C(=O)NCC1(N2CCOCC2)CCCCC1 | 1.86%
26 | CN1CCC(Nc2ccc(Cl)cc2)CC1 | 10.9%
27 | COc1cccc(C(=O)N(c2cc(C)cc(C)c2)C2CCN(C(=O)OC(C)(C)C)CC2)c1 | -4.42%
28 | COc1cc(OC)cc(C(=O)NCC2(N3CCOCC3)CCCCC2)c1 | 10.7%
29 | Cc1cccc(NC2(C#N)CCN(Cc3ccccc3)CC2)c1 | 8.89%
30 | CSc1ccccc1C(=O)NCC1(N2CCCCC2)CCCCC1 | 1.15%
31 | COc1ccc(C(=O)NCC2(N3CCCCC3)CCCCC2)c(OC)c1OC | 3.29%
32 | CC(C)(C)OC(=O)N1CCC(N(C(=O)c2ccccc2)c2ccc(F)cc2)CC1 | 1.65%
33 | COc1ccc(C(=O)NCC2(N3CCCCC3)CCCCC2)cc1 | 12.8%
34 | O=C(NCC1(N2CCCCC2)CCCCC1)c1cccs1 | -1.48%
35 | O=C(NCC1(N2CCCCC2)CCCCC1)c1ccc(=O)[nH]c1 | -3.39%
36 | COc1ccc(Cl)cc1C(=O)NCC1(N2CCOCC2)CCCCC1 | 2.83%
37 | O=C(NCC1(N2CCCCC2)CCCCC1)c1ccc(Cl)s1 | 1.07%
38 | N#CC1(Nc2ccccc2)CCN(Cc2ccccc2)CC1 | -4.54%
39 | O=C(OC1CN2CCC1CC2)C1c2ccccc2Oc2ccccc21 (configuration not stated) | 25.6%
40 | CCOC(=O)N1CCC(Nc2ccc(OC)cc2)CC1 | 1.32%
41 | Cc1cc(C)cc(N(C(=O)c2ccccc2)C2CCN(C(=O)OC(C)(C)C)CC2)c1 | -9.67%
42 | O=C(NCC1(N2CCCCC2)CCCCC1)c1ccc(Cl)nc1 | 3.92%
43 | CCOC(=O)N1CCC(Nc2ccc(F)cc2)CC1 | 5.98%
44 | COc1ccc(NC2CCN(CCc3ccccc3)CC2)c(OC)c1 | -8.72%
45 | CCCCOc1ccc(C(=O)NCC2(N3CCOCC3)CCCCC2)cc1 | 12.3%
46 | O=P1(N(CCCl)CCCl)SCCCS1 | 7.97%

Row | Compound | growth inhibition
47 | O=C(NCC1(N2CCCCC2)CCCCC1)c1ccc(F)cc1 | -1.84%
48 | CCOc1ccc(C)cc1CN(CCCl)CCCl | -5.02%
49 | CCOC(=O)N1CCC(Nc2cccc(C)c2)CC1 | 6.97%
50 | COc1cc(C(=O)NCC2(N(C)C)CCCCC2)ccc1OC(F)F | 2.75%
51 | N#CC1(Nc2ccccc2)CCN(CCc2ccccc2)CC1 | 7.16%
52 | CCN1CCC(Nc2ccc(Cl)cc2)CC1 | 2%
53 | O=C(NCC1(N2CCCCC2)CCCCC1)c1cccc([N+](=O)[O-])c1 | 7.38%
54 | CSc1ccc(C(=O)NCC2(N3CCOCC3)CCCCC2)cc1 | -4.92%
55 | O=C(NCC1(N2CCCCC2)CCCCC1)c1ccc(OC(F)F)cc1 | 1.97%
56 | COc1cc(C(=O)NCC2(N3CCCCC3)CCCCC2)ccc1OC(F)F | 6.64%
57 | COc1ccc(NC2CCN(C(=O)OC(C)(C)C)CC2)cc1 | 11.6%
58 | CC(C)c1ccc(C(=O)NCC2(N3CCOCC3)CCCCC2)cc1 | 1.9%
59 | CN1CCN(CCOC(=O)C(O)(c2ccccc2)c2ccccc2)CC1 | 0.803%
60 | O=C(NCC1(N2CCCCC2)CCCCC1)c1cccc(C(F)(F)F)c1 | 3.64%
61 | O=C(NCC1(N2CCOCC2)CCCCC1)c1cc(F)c(F)cc1Cl | 3.42%
62 | COc1cc(OC)c(C(=O)NCC2(N(C)C)CCCCC2)cc1OC | -5.37%
63 | CC(C)c1ccc(NC2CCN(C(=O)OC(C)(C)C)CC2)cc1 | 12.5%
64 | CN(C)c1cccc(C(=O)NCC2(N3CCCCC3)CCCCC2)c1 | 5.24%
65 | COc1ccc(CN(CCCl)CCCl)cc1Cl | 9.49%
66 | CCCOc1ccc(C(=O)NCC2(N(C)C)CCCCC2)cc1OC | -0.117%
67 | O=C(NCC1(N2CCCCC2)CCCCC1)c1cncc(Br)c1 | 0.654%
